Measured values published in the supplement of paper PMC12067093, “Discovery and optimisation of a covalent ligand for TRIM25 and its application to targeted protein ubiquitination” (Chemical Science, 2025).
Some of the results follow.

By UniProt entry, the sequences of proteins in these tests, tags left out. Where a name states a change or a piece, a line headed by the entry shows the natural chain unless it says otherwise.
UniProt O00186: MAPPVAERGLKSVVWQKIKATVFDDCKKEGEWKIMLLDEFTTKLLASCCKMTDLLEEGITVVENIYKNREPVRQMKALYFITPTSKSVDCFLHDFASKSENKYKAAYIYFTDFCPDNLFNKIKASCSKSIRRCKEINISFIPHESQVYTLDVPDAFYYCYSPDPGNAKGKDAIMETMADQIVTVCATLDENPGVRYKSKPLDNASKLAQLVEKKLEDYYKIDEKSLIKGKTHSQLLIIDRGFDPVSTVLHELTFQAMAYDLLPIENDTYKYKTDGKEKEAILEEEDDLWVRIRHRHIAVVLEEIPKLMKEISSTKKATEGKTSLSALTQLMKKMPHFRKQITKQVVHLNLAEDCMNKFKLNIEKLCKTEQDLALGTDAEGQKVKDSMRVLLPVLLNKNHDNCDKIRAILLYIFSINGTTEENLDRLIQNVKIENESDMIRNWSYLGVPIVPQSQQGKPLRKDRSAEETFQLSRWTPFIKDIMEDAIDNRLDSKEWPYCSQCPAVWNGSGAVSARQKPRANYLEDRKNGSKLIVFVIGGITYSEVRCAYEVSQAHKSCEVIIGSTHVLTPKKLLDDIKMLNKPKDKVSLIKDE
UniProt Q5VSL9: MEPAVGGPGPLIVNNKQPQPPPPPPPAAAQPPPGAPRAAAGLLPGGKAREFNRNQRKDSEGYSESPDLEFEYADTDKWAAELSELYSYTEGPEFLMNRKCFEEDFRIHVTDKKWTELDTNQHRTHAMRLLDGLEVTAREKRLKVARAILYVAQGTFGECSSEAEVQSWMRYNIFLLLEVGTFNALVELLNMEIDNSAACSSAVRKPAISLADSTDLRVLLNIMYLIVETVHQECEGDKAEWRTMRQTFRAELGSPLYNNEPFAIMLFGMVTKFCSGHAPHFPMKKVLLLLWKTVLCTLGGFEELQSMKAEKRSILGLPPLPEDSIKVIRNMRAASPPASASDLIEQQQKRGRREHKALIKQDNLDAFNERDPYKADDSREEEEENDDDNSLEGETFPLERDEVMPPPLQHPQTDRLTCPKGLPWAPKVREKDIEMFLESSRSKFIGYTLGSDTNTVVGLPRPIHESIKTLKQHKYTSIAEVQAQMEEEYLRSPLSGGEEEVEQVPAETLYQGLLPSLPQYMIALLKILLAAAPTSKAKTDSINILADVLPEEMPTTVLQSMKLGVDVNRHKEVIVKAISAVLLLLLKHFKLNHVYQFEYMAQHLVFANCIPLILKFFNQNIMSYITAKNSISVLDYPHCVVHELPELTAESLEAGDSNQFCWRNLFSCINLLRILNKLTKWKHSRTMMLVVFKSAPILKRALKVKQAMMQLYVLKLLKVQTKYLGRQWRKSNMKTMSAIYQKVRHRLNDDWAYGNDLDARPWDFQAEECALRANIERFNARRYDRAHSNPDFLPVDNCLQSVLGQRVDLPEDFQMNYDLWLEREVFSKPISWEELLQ
UniProt Q9P2R7: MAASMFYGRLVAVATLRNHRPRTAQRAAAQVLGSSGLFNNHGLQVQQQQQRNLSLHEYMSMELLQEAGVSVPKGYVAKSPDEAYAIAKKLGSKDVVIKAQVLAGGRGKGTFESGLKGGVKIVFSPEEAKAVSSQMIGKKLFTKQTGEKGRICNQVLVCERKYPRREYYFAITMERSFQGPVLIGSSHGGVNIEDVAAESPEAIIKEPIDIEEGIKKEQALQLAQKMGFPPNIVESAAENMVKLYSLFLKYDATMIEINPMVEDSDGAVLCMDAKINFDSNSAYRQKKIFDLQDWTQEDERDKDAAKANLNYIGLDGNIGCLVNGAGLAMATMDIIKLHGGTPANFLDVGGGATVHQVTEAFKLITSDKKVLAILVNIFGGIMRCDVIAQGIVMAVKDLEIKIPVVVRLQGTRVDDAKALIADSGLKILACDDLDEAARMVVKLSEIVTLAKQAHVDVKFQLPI
UniProt Q9UNE7: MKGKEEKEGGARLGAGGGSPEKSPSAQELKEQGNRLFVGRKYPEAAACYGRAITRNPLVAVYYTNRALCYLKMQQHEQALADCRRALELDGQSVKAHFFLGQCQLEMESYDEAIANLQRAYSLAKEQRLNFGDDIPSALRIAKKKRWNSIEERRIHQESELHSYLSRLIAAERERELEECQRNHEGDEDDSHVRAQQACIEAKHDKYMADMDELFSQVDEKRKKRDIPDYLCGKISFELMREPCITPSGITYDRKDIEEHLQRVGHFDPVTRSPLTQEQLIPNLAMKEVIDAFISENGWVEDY
UniProt Q15022: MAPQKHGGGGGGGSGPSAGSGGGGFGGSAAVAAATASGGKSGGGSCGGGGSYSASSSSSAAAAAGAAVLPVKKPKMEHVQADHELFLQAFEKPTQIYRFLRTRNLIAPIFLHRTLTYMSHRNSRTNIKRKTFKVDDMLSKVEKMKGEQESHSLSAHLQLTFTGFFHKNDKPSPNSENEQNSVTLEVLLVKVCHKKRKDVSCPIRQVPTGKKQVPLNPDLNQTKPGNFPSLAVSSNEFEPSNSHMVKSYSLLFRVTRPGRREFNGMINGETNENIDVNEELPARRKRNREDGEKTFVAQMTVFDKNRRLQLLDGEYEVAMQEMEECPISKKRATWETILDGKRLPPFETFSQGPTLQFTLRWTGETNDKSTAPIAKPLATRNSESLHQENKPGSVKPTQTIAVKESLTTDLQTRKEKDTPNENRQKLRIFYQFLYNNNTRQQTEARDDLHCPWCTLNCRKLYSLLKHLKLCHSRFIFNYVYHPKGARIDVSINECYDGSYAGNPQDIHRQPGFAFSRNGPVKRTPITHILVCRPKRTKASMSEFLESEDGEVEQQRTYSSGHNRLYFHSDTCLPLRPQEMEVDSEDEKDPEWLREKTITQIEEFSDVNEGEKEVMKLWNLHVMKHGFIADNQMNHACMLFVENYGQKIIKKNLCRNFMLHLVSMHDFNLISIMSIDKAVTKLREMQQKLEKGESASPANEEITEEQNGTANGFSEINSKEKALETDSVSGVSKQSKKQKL
UniProt Q9NQZ5: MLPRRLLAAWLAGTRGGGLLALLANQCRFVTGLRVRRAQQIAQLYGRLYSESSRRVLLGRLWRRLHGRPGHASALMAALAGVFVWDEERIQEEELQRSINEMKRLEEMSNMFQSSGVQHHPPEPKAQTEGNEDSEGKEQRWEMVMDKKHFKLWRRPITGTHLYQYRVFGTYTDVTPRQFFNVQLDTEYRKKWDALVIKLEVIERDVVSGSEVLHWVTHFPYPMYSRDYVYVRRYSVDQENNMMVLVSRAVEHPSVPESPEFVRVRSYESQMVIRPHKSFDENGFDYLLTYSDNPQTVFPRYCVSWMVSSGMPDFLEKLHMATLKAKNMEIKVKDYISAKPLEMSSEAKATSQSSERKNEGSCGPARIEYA
UniProt Q15468: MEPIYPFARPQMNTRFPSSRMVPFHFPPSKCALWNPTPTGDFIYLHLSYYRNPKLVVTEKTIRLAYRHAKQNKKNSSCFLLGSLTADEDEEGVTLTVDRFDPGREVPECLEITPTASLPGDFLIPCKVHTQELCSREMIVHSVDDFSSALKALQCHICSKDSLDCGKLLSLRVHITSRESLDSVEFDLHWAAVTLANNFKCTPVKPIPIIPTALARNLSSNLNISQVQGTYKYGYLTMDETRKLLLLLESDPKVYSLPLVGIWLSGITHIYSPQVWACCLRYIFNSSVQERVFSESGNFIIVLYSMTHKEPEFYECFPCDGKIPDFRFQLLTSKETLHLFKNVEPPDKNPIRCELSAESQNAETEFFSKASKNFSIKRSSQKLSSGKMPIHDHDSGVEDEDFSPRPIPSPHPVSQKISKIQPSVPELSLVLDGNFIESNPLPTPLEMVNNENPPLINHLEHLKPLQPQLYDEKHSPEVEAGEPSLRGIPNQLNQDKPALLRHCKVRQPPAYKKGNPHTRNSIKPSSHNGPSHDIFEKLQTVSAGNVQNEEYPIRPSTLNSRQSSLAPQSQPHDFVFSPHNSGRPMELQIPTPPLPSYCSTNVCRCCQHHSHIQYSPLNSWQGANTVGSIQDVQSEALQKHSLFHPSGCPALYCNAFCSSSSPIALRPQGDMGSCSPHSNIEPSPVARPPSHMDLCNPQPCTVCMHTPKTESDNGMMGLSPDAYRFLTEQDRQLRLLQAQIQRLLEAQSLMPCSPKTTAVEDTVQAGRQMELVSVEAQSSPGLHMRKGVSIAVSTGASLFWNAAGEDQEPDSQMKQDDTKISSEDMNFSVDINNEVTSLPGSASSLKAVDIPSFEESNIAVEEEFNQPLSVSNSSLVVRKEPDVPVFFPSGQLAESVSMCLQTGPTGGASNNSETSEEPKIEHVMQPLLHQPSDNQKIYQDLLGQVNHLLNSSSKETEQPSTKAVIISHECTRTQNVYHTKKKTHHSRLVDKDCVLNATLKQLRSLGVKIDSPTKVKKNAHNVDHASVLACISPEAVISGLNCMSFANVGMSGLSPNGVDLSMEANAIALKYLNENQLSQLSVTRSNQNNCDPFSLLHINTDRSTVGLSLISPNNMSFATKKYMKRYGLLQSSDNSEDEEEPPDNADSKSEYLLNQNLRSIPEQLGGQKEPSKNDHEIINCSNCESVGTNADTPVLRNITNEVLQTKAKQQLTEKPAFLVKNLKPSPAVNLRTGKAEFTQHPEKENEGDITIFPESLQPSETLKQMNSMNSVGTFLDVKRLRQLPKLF
UniProt P42226: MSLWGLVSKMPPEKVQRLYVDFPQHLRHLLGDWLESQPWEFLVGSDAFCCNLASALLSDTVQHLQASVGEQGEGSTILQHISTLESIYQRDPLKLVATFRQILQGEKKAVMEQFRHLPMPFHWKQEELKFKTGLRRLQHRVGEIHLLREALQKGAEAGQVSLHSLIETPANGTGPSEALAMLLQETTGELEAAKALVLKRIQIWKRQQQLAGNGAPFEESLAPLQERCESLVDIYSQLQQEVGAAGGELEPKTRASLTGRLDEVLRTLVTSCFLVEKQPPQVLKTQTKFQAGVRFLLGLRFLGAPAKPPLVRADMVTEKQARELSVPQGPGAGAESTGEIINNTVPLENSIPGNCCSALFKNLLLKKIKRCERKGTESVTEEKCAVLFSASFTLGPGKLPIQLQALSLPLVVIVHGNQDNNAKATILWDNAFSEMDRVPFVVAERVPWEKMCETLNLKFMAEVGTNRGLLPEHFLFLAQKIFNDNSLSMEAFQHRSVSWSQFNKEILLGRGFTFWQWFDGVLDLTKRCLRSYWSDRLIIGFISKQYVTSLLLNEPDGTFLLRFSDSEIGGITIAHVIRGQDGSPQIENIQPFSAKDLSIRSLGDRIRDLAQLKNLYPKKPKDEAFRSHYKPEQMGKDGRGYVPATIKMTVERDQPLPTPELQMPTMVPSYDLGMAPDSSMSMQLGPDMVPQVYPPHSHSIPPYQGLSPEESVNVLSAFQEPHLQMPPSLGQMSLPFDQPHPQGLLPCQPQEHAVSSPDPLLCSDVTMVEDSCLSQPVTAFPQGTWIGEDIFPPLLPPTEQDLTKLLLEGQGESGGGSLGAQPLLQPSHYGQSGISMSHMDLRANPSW
UniProt Q9NSY2, whole entry: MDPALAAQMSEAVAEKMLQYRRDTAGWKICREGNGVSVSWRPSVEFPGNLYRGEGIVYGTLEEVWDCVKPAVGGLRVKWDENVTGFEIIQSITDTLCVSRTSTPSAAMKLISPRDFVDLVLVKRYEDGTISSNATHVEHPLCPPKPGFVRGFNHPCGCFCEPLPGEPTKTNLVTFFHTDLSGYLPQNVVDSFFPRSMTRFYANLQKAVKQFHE
UniProt Q9Y5Y6: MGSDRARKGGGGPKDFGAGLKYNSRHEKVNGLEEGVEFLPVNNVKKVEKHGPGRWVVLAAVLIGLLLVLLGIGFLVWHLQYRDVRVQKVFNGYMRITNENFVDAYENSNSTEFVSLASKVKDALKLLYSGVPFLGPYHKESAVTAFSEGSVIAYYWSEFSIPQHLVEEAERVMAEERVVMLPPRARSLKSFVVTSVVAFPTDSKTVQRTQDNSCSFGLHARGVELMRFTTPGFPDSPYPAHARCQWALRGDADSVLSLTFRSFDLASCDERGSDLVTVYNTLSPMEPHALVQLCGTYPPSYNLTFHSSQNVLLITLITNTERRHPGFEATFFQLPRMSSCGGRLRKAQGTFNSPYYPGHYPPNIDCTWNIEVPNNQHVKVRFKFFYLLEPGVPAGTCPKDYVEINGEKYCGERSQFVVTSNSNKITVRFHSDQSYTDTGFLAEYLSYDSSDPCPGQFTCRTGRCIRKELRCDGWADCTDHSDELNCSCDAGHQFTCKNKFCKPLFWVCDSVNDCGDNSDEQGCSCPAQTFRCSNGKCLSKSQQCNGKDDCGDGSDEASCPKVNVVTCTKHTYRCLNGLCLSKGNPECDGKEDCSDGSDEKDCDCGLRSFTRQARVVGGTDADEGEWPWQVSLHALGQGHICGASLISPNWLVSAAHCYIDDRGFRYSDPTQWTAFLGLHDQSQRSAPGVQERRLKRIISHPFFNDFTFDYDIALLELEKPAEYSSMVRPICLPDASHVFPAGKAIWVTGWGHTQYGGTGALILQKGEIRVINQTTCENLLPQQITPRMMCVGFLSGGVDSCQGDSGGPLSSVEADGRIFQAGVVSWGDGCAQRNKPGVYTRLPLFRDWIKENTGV

compound: Cc1cc(ccc1-c1ccccc1)C(=O)N1CCCN(CC1)C(=O)CCl [compound 10]; test: probe-labelled cysteine peptide fold change vs DMSO (competition) (log2 fold change); higher = less target engagement (more negative = stronger competition); settings: 50 µM; THP-1; incubation time: 4 h
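Note: competitive profiling in live THP-1 cells: cysteine peptides tagged with an iodoacetamide desthiobiotin (IA-DTB) probe, intensity after compound treatment relative to DMSO-treated cells.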

| Target | probe-labelled cysteine peptide fold change |
| --- | --- |
| STXBP3_O00186_26_ATVFDDCK (UniProt O00186) | 0.039 |
| STAT1_P42224_492_NLSFFLTPPCAR (UniProt P42224) | -0.594 |
| STRN4_Q9NRL3_17_AAAAVAAAASSCRPLGSGAGPGPTGAAPVSAPAPGPGPAGK (UniProt Q9NRL3) | -0.496 |
| STXBP5_Q5T5C0_697_SRQPSGAGLCDISEGTVVPEDR (UniProt Q5T5C0) | -0.218 |
| STRIP1_Q5VSL9_798_AHSNPDFLPVDNCLQSVLGQR (UniProt Q5VSL9) | -0.196 |
| SUCLA2_Q9P2R7_430_ILACDDLDEAAR (UniProt Q9P2R7) | 0.103 |
| STUB1_Q9UNE7_83_MQQHEQALADCRR (UniProt Q9UNE7) | -0.0798 |
| SUZ12_Q15022_325_LQLLDGEYEVAMQEMEECPISK (UniProt Q15022) | -0.99 |
| STARD7_Q9NQZ5_362_KNEGSCGPAR (UniProt Q9NQZ5) | -0.378 |
| STIL_Q15468_126_EVPECLEITPTASLPGDFLIPCK (UniProt Q15468) | 0.571 |
| STXBP3_O00186_557_SCEVIIGSTHVLTPK (UniProt O00186) | -0.126 |
| STAT6_P42226_452_MCETLNLK (UniProt P42226) | 0.014 |
| SUPT16H_Q9Y5B9_153_SWNDCLNK (UniProt Q9Y5B9) | 0.0803 |
| SUPT6H_Q7KZ85_1021_TQLVTMCHMGPK (UniProt Q7KZ85) | 0.105 |
| STT3B_Q8TCJ2_715_AGSPTLLNCLMYK (UniProt Q8TCJ2) | 0.172 |
| STIL_Q15468_353_CELSAESQNAETEFFSK (UniProt Q15468) | -0.147 |
| SVIL_O95425_76_YCTETSGVHGDSPYGSGTMDTHSLESK (UniProt O95425) | 0.114 |
| STARD3_Q14849_317_TVTACQILQR (UniProt Q14849) | -0.0212 |

Nothing new here: an excerpt of the list.

| Target | probe-labelled cysteine peptide fold change |
| --- | --- |
| STRIP1_Q5VSL9_798_AHSNPDFLPVDNCLQSVLGQR (UniProt Q5VSL9) | -0.196 |
| SUCLA2_Q9P2R7_430_ILACDDLDEAAR (UniProt Q9P2R7) | 0.103 |
| STUB1_Q9UNE7_83_MQQHEQALADCRR (UniProt Q9UNE7) | -0.0798 |
| SUZ12_Q15022_325_LQLLDGEYEVAMQEMEECPISK (UniProt Q15022) | -0.99 |
| STARD7_Q9NQZ5_362_KNEGSCGPAR (UniProt Q9NQZ5) | -0.378 |
| STIL_Q15468_126_EVPECLEITPTASLPGDFLIPCK (UniProt Q15468) | 0.571 |
| STXBP3_O00186_557_SCEVIIGSTHVLTPK (UniProt O00186) | -0.126 |
| STAT6_P42226_452_MCETLNLK (UniProt P42226) | 0.014 |
| SUPT16H_Q9Y5B9_153_SWNDCLNK (UniProt Q9Y5B9) | 0.0803 |
| SUPT6H_Q7KZ85_1021_TQLVTMCHMGPK (UniProt Q7KZ85) | 0.105 |

Further results

| Target | probe-labelled cysteine peptide fold change |
| --- | --- |
| SUZ12_Q15022_531_RTPITHILVCRPK (UniProt Q15022) | -0.0991 |
| STARD5_Q9NSY2_67_GEGIVYGTLEEVWDCVK (UniProt Q9NSY2) | 0.0149 |
| SWAP70_Q9UH65_260_GDILLDENCCVESLPDK (UniProt Q9UH65) | 0.17 |
| ST14_Q9Y5Y6_602+604_DCDCGLR (UniProt Q9Y5Y6) | -1.07 |
| STXBP2_Q15833_158_EIHLAFLPYEAQVFSLDAPHSTYNLYCPFRAEER (UniProt Q15833) | -0.613 |
| SYMPK_Q92797_1068_CPELREPLLAHVR (UniProt Q92797) | -0.195 |
| SUPV3L1_Q8IYB8_372_RLTPISVLDHALESLDNLRPGDCIVCFSK (UniProt Q8IYB8) | -0.0406 |
| SUCLG1_P53597_60_IICQGFTGK (UniProt P53597) | -0.141 |
| SUPT4H1_P63272_16+19_ACLLCSLVK (UniProt P63272) | -0.363 |
| STK17B_O94768_372_FRFDDSLPNPHELVSDLLC (UniProt O94768) | 0.369 |
| SUV39H1_O43463_30_LSCPALGISK (UniProt O43463) | 0.0691 |
| SURF2_Q15527_29+38_CILTGHELPCR (UniProt Q15527) | -0.0729 |
| STUB1_Q9UNE7_180_ERELEECQR (UniProt Q9UNE7) | 0.157 |
| ST3GAL1_Q11201_59_HRPCTCTHCIGQR (UniProt Q11201) | -0.101 |
| SRSF7_Q16629_106+109_CYECGEK (UniProt Q16629) | 0.219 |
| SYK_P43405_597_MGCPAGCPR (UniProt P43405) | -0.138 |
| ST14_Q9Y5Y6_214_TQDNSCSFGLHAR (UniProt Q9Y5Y6) | -0.427 |
